Measurements reported in PubChem BioAssay AID1259254 (NCATS, 2017)

- Assay: 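Gene knock-downs that lead to re-replication, shown by excess G2 DNA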 (primary screen)
- Cells: human HCT116 colorectal cancer cells
- Reagents: single siRNA against human genes
- Duration: 3 days
- Measurement: 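Imaged Hoechst DNA stain sorts each cell into a cycle phase by DNA amount; per plate, G2 fraction set to 0% for non-targeting and 100% for GMNN siRNA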
- Reading the numbers: G2 robust z-score and G2 cells, % of GMNN control: higher = more G2 cells, more excess DNA replication
- Rule for the call: 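Active siRNAs have a G2 robust z of 5 or more median absolute deviations over the median, which in these data means about 38% or higher of GMNN control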
The whole screen tested about 59,000 reagents; this is an unselected part. About 1,550 of all reagents (2.6%) were called active. 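G2 share is only a proxy for re-replication; each gene was hit by three separate siRNAs, and active genes were retested.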 Entries without a mark were called inactive. Reagents against one gene are numbered here. Not all columns of the deposit are shown. Not stated in the record: the amount of reagent.

After knock-down of SECISBP2 #1 the results were G2 robust z-score 1.77; G2 cells, % of GMNN control 15.5.
With knock-down of SECISBP2 #2, the screen gave G2 robust z-score -0.936; G2 cells, % of GMNN control -3.62.
For SECISBP2 #3 the deposit lists G2 robust z-score 0.644; G2 cells, % of GMNN control 7.5.
Silencing of LINC03033 #1 resulted in: G2 robust z-score 0.00405; G2 cells, % of GMNN control 3.
Against LINC03033 #2 the deposit lists G2 robust z-score 2.06; G2 cells, % of GMNN control 17.5.
Depletion of LINC03033 #3 resulted in: G2 robust z-score 3.92; G2 cells, % of GMNN control 30.6.
Against NRDC #1 the deposit lists G2 robust z-score -0.419; G2 cells, % of GMNN control 0.019.
NRDC #2 gave G2 robust z-score 0.145; G2 cells, % of GMNN control 3.98.
Knock-down of NRDC #3 gave: G2 robust z-score -0.732; G2 cells, % of GMNN control -2.18.
For HELLS #1, the entry reads G2 robust z-score -0.563; G2 cells, % of GMNN control -0.995.
Against HELLS #2 the deposit lists G2 robust z-score 0.423; G2 cells, % of GMNN control 5.95.
With knock-down of HELLS #3 the results were G2 robust z-score -0.264; G2 cells, % of GMNN control 1.11.

2 entries from above, arranged by “G2 cells, % of GMNN control”, highest first:
HELLS #2 — G2 robust z-score = 0.423; G2 cells, % of GMNN control = 5.95
HELLS #1 — G2 robust z-score = -0.563; G2 cells, % of GMNN control = -0.995
